Among the data in article PMC4970767 are binding values, retold here.

By UniProt entry, the sequences of proteins in these tests, tags left out. Residues count along the entry.
UniProt P11021, residues 19-654: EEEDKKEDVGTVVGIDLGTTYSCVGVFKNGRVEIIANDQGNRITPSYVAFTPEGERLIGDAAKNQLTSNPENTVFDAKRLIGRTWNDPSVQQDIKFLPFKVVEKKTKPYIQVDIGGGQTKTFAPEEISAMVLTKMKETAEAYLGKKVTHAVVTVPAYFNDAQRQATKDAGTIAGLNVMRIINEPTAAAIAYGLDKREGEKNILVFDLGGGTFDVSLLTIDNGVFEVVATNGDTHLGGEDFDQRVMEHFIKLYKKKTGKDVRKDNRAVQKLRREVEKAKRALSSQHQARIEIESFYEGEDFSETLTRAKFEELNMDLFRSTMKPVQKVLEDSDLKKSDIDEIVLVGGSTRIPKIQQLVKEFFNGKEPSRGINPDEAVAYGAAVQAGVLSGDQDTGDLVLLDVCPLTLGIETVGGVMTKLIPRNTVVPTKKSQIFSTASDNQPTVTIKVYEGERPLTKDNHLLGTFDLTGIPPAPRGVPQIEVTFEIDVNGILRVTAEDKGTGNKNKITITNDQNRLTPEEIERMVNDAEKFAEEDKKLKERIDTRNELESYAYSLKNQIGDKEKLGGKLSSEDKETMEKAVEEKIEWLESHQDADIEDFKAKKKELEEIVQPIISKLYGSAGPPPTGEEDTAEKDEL
UniProt P20029, residues 20-655: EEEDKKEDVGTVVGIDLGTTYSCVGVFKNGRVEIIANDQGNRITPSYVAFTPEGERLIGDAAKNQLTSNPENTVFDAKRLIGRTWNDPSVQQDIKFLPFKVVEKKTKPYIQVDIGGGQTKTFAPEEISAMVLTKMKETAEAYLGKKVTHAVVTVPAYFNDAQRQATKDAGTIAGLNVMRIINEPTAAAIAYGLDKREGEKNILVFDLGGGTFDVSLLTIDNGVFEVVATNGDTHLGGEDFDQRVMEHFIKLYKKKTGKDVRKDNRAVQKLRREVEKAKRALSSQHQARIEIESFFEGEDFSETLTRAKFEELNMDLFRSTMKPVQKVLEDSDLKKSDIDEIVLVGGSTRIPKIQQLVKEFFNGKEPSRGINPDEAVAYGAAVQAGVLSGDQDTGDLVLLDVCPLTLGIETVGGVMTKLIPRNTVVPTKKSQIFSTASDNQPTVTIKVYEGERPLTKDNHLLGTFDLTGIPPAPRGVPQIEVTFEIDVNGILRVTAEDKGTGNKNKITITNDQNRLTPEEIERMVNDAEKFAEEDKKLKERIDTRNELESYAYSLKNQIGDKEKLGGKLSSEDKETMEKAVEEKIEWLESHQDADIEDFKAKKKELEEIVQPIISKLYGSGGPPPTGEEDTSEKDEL
UniProt P21796: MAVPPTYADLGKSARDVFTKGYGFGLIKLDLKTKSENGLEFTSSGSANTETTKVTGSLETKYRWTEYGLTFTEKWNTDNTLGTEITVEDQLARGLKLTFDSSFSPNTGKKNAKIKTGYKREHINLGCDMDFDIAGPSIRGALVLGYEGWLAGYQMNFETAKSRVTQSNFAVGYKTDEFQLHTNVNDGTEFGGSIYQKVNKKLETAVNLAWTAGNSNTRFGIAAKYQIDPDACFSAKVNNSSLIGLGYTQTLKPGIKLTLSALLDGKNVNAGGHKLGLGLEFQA
UniProt P26361: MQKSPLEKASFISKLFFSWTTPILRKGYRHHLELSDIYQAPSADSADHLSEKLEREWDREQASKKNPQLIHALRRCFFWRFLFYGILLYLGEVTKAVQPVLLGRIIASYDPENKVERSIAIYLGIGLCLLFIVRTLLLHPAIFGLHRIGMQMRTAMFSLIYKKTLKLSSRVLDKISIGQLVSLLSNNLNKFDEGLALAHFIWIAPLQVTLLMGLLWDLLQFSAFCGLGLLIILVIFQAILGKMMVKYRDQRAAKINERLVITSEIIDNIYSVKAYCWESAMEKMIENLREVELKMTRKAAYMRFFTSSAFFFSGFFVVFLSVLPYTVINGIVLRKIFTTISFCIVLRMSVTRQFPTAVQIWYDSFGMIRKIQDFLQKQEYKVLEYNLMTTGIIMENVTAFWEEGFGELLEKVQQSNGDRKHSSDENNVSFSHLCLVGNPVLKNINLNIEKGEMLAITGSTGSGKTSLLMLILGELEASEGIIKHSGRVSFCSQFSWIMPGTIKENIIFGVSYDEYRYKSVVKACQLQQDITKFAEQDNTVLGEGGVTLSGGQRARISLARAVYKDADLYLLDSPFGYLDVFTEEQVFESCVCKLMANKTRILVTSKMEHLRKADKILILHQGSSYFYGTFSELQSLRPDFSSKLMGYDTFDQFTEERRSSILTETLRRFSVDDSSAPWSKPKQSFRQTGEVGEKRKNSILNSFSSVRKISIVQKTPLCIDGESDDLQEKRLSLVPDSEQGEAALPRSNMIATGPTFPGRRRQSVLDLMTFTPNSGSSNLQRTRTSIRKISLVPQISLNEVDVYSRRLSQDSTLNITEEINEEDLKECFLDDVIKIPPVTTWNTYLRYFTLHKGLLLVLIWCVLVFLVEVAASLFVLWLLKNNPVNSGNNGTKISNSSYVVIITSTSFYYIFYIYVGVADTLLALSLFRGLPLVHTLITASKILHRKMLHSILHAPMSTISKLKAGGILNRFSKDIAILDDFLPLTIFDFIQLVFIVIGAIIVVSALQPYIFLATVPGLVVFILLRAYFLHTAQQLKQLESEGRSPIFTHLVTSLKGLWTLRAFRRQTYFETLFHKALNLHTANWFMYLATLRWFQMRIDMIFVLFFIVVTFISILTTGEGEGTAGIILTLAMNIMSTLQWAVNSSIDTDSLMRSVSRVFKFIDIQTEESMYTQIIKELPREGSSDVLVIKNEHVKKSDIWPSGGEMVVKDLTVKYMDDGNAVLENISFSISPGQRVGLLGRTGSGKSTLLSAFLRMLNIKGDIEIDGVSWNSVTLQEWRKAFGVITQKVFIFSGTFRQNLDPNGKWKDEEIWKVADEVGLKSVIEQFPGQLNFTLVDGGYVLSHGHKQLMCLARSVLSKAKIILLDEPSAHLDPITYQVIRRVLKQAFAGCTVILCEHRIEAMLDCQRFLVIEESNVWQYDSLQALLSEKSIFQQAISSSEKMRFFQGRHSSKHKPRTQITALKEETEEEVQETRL

No constants are given. Whether binding was seen depends on the method and setting. Binding seen in cells or lysates may run through a third protein. Some results given as binding are weak or reduced against the parent protein; the word gives no strength.

The target in experiment [1] is Grp78 (Bip), NT2 cells (human (endogenous in NT2)) (UniProt P11021). The experiment in a line: co-IP; NT2 human germ cell tumor cell lysate, reciprocal immunoprecipitation, Protein A/G PLUS-agarose, Western blot. On the technique in general: Immunoblotting shows a protein as a band on a membrane.
The target in experiment [2] is Grp78 (Bip), mouse testis (mouse (endogenous in testis)) (UniProt P20029). The experiment in a line: co-IP; mouse testis lysate (400 ug protein, RIPA lysis buffer with 1% NP-40, 0.15 M NaCl, pH 7.4), precleared with normal rabbit serum, antibody overnight at room temperature, Protein A/G PLUS-agarose, Western blot.

With “VDAC1, NT2 cells (from UniProt P21796 1-283)”, the binding entry in experiment [1] is given as “binds”. As for “Cystic fibrosis transmembrane conductance regulator (CFTR), mouse testis (from UniProt P26361 1-1476)”, the binding entry in experiment [2] was “binds”.
